In assay [1] the target is CD22 on B-cell lymphoma cells (OCI-Ly7 cells; Raji cells) (human) (UniProt P20273). Briefly: flow cytometry on Raji cells, 0.1 µM IgG, anti-human Cκ-APC detection. For orientation: In flow cytometry, cells or beads pass a laser one at a time.
Assay [2] shares this target. Briefly: flow cytometry on OCI-Ly7 cells, 0.25 µM fusion protein, anti-HA detection.

Protein sequences, listed by entry. Tags and fused reporters are not part of them. Residues count along the entry.
UniProt P20273, residues 20-847: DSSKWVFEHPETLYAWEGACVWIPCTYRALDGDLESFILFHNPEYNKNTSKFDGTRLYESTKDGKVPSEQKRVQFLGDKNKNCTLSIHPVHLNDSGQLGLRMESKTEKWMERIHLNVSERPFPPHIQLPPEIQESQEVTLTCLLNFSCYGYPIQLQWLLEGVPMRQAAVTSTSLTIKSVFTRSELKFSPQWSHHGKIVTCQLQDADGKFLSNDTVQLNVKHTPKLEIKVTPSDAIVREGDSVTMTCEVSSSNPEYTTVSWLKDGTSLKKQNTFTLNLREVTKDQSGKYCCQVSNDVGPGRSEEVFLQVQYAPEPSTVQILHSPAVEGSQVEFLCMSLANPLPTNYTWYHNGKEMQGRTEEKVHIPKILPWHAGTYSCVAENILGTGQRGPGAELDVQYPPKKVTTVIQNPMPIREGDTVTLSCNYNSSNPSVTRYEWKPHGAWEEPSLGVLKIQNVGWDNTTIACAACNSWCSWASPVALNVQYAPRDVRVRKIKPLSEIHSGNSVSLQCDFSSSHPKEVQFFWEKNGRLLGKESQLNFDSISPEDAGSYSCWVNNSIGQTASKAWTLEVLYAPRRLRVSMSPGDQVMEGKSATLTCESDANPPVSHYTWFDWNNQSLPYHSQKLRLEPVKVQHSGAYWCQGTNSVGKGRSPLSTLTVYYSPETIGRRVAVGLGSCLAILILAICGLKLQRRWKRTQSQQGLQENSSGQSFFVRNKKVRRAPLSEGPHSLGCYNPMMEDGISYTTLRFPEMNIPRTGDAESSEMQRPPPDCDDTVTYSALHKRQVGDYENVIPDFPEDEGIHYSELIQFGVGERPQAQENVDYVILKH

No constants are given. Whether binding was seen depends on the method and setting. Some results given as binding are weak or reduced against the parent protein; the word gives no strength. For some assays here: Where a sequence is shown, tags or fusion partners need not be part of it.

B1: anti-CD22 IgG protein 2-3-14 (antibody, V domains shown)
VH: AVTLDESGGGLQTPGGGLSLVCKASGFSFSDYGMGWVRQAPGKGLEFVASISNTGSYTDYGAAVKGRATISRDNGQSTLRLQLNNLRAEDTGTYFCAKSAYGGSYGSSSIDAWGHGTEVIVSS
VL: LTQPSSVSANPGETVKITCSGSNNTYGWYQQKAPGSAPVTVIYDNTNRPSDIPSRFSGSKSGSTNTLTITGVQAEDEAVYFCGSRDSTYVGIFGAGTTLTVLR
notes: also called Feb; 3, 2014
Consider B1, for which the binding result in assay [1] is recorded as “binds”.

B2: anti-CD22 IgG protein 2-3-14_H2-40 (antibody, V domains shown)
VH: AVTLDESGGGLQTPGGGLSLVCKASGFSFSDYGMGWVRQAPGKGLEFVAFLGSSSSYTDYGAAVKGRATISRDNGQSTLRLQLNNLRAEDTGTYFCAKSAYGGSYGSSSIDAWGHGTEVIVSS
VL: LTQPSSVSANPGETVKITCSGSNNTYGWYQQKAPGSAPVTVIYDNTNRPSDIPSRFSGSKSGSTNTLTITGVQAEDEAVYFCGSRDSTYVGIFGAGTTLTVLR
For B2, the binding entry in assay [1] was “binds”.

B3: anti-CD22 IgG protein 2-3-14_H1-24 (antibody, V domains shown)
VH: AVTLDESGGGLQTPGGGLSLVCKASGFAFGRSSMGWVRQAPGKGLEFVASISNTGSYTDYGAAVKGRATISRDNGQSTLRLQLNNLRAEDTGTYFCAKSAYGGSYGSSSIDAWGHGTEVIVSS
VL: LTQPSSVSANPGETVKITCSGSNNTYGWYQQKAPGSAPVTVIYDNTNRPSDIPSRFSGSKSGSTNTLTITGVQAEDEAVYFCGSRDSTYVGIFGAGTTLTVLR
B3: in assay [1], the binding entry is “binds”.

B4: anti-CD22 IgG protein CI4-47_8-1_H1-2-37 (antibody, V domains shown)
VH: EVQLLESGGGLVQPGGSLRLSCAASGFTFSRHGMYWVRQAPGKGLEWVSGIGSSGTGTYYGSAVRGRFTISRDNSKNTLYLQMNSLRAEDTAVYYCARDYGSDSGVGWGIYAGEIDAWGQGTLVTVSS
VL: LTQPPSVSVSPGQTARITCSGGSGGYGWYQQKPGSAPVSVIYDNDQRPSGIPERFSGSSSGTTVTLTISGVQAEDEADYYCGSYDSSYVGIFGGGTKLTVLR
With B4, the binding result in assay [1] is “binds”.

B5: anti-CD22 IgG protein CI4-47_8-1_H1-2-1 (antibody, V domains shown)
VH: EVQLLESGGGLVQPGGSLRLSCAASGFTFSKHGHYWVRQAPGKGLEWVSGIGSSGTGTYYGSAVRGRFTISRDNSKNTLYLQMNSLRAEDTAVYYCARDYGSDSGIGWGIYAGEIDAWGQGTLVTVSS
VL: LTQPPSVSVSPGQTARITCSGGSGGYGWYQQKPGSAPVSVIYDNDQRPSGIPERFSGSSSGTTVTLTISGVQAEDEADYYCGSYDSSYVGIFGGGTKLTVLR
For B5, the binding result in assay [1] was “binds”.

B6: anti-CD22 IgG protein CI4-47_8-1 (antibody, V domains shown)
VH: EVQLLESGGGLVQPGGSLRLSCAASGFTFSNYCMSWVRQAPGKGLEWVSGIGSSGTGTYYGSAVRGRFTISRDNSKNTLYLQMNSLRAEDTAVYYCARDYGSDSGCGWGIYAGEIDAWGQGTLVTVSS
VL: LTQPPSVSVSPGQTARITCSGGSGGYGWYQQKPGSAPVSVIYDNDQRPSGIPERFSGSSSGTTVTLTISGVQAEDEADYYCGSYDSSYVGIFGGGTKLTVLR
In the case of B6, the binding result in assay [1] is “binds”.

B7: recombinant anti-CD22 scFv-Cκ-HA fusion protein CI4-47 (scFv)
scFv: LTQPSSVSANPGETVKITCSGGSGGYGWYQQKSPGSAPVSLIYDNDQRPSDIPSRFSGSKSGSTGTLTITGVQADDEAVYYCGSYDSSYVGIFGAGTTLTVLGGGGSGGGGSGGGGSAVTLDESGGGLQTPGGALSLVCKASGFTFSNYCMQWVRQAPGKGLEWVAGIGSSGTGTYYGSAVRGRATISRDNGQSTVRLQLNNLRAEDTGTYYCARDYGSDSGCGWGIYAGEIDAWGHGTEVIVSSGGGGSGGGGSGGGGSRTVAAPSVFIFPPSDEQLKSGTASVVCLLNNFYPREAKVQWKVDNALQSGNSQESVTEQDSKDSTYSLSSTLTLSKADYEKHKVYACEVTHQGLSSPVTKSFNRGESGGAYPYDVPDYAS
notes: Chicken-derived scFv fused to a human constant kappa region and an HA tag; expressed in HEK293F cells, purified on KappaSelect; also called CI4-47 scFv-Cκ-HA
With B7, the binding result in assay [2] is listed as “binds”.

B8: recombinant anti-CD22 scFv-Cκ-HA fusion protein 2-3-14 (scFv)
scFv: LTQPSSVSANPGETVKITCSGSNNTYGWYQQKAPGSAPVTVIYDNTNRPSDIPSRFSGSKSGSTNTLTITGVQAEDEAVYFCGSRDSTYVGIFGAGTTLTVLGGGGSGGGGSGGGGSAVTLDESGGGLQTPGGGLSLVCKASGFSFSDYGMGWVRQAPGKGLEFVASISNTGSYTDYGAAVKGRATISRDNGQSTLRLQLNNLRAEDTGTYFCAKSAYGGSYGSSSIDAWGHGTEVIVSSGGGGSGGGGSGGGGSRTVAAPSVFIFPPSDEQLKSGTASVVCLLNNFYPREAKVQWKVDNALQSGNSQESVTEQDSKDSTYSLSSTLTLSKADYEKHKVYACEVTHQGLSSPVTKSFNRGESGGAYPYDVPDYAS
notes: The text prints the clone name 2-3-14 as 'Feb; 3, 2014' in several paragraphs (date conversion artefact); also called Feb; 3, 2014; 2-3-14 scFv-Cκ-HA
For the molecule B8, the binding entry in assay [2] is recorded as “binds”.

The values above are taken from patent US20260176354A1, “ANTIBODY BINDING TO CD22, AND BISPECIFIC ANTIBODY, CHIMERIC ANTIGEN RECEPTOR AND ANTIBODY-DRUG CONJUGATE COMPRISING SAME, AND USE THEREOF” (THE ASAN FOUNDATION, priority 2022, published 2026).
